# Some of the results follow.
# B1: HopZSSI-T (Helicobacter pylori), B5Z6D0 (protein)
# chain: MGSSHHHHHHSSGLVPRGSHMENLYFQGEDNGFFISAGYQIGEAAQMVKNTGELKKLSDTYENLSNLLTNFNNLNQAVTNASSPSEINAAIDNLKANTQGLTGEKTNSPAYQAVYLALNAAVGLWNVIAYNVQCGPGNSSQQSVTFEGQPGHNSSSINCNLTGYNNGVSGPLSIDNFKQLNQAYQVLQQALKQGVPVLNNTNQKIEVKVTTQTNGQSSKETTTTTTTNDAQTLLQEASKMIDVLTTNCPWVNHNPGQNGGAPWGLIRQECVSGFATEFSAVTSMIKNAQEIVTQAQSLNANQNNQNAPQDFNPYTSADRAFAQNMLNHAQAQAKILELADQMKKDLNTIPSQFITNYLAACRIDGTTPSQGVTNNTWGAGCAYVEETITALNNSLAHFGTQAEQIKQSELLARTILDFRGSLSTLNSTYNSITTTASNTPNSPFLKNLISQSTNPNNPGGLQAVYQVNQSAYSQLLSATQELGHNPFRRIGLISSQT
# How the values were obtained:
# Experiment in all cases: glycan array binding signal (z-score within array); higher = stronger binding
# Conditions in all cases: glycan notation: IUPAC condensed, linker removed
# [1] = target: Neu5Ac(a2-3)Gal(b1-4)GlcNAc(b1-2)[Neu5Ac(a2-3)Gal(b1-4)GlcNAc(b1-4)]Man(a1-3)[GlcNAc(b1-4)][Neu5Ac(a2-3)Gal(b1-4)GlcNAc(b1-4)Man(a1-6)]Man(b1-4)GlcNAc(b1-4)GlcNAc
# How it was run: (§1)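 The binding signal is a Z-score computed within each array and averaged over linkers. Arrays of the same protein sequence at different concentrations or buffers were also averaged together. Data originate from 3228 arrays in the Consortium for Functional Glycomics database, kept only where the protein sequence was available.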
# [2] = target: Neu5Ac(a2-3)Gal(b1-4)GlcNAc(b1-2)[Neu5Ac(a2-3)Gal(b1-4)GlcNAc(b1-6)]Man(a1-6)[Neu5Ac(a2-3)Gal(b1-4)GlcNAc(b1-2)Man(a1-3)]Man(b1-4)GlcNAc(b1-4)GlcNAc
# How it was run: as §1
# [3] = target: Neu5Ac(a2-3)Gal(b1-4)GlcNAc(b1-2)[Neu5Ac(a2-3)Gal(b1-4)GlcNAc(b1-6)]Man(a1-6)[Neu5Ac(a2-3)Gal(b1-4)GlcNAc(b1-2)Man(a1-3)][GlcNAc(b1-4)]Man(b1-4)GlcNAc(b1-4)GlcNAc
# How it was run: as §1
# [4] = target: Neu5Ac(a2-3)Gal(b1-4)GlcNAc(b1-3)Gal
# How it was run: as §1
# [5] = target: Neu5Ac(a2-3)Gal(b1-4)GlcNAc(b1-3)Gal(b1-3)GlcNAc
# How it was run: as §1
# [6] = target: Neu5Ac(a2-3)Gal(b1-4)GlcNAc(b1-3)Gal(b1-4)GlcNAc
# How it was run: as §1
# [7] = target: Neu5Ac(a2-3)Gal(b1-4)GlcNAc(b1-3)Gal(b1-4)GlcNAc(b1-2)Man(a1-3)[Neu5Ac(a2-3)Gal(b1-4)GlcNAc(b1-3)Gal(b1-4)GlcNAc(b1-2)Man(a1-6)]Man(b1-4)GlcNAc(b1-4)GlcNAc
# How it was run: as §1
# [8] = target: Neu5Ac(a2-3)Gal(b1-4)GlcNAc(b1-3)Gal(b1-4)GlcNAc(b1-3)Gal(b1-4)GlcNAc
# How it was run: as §1
# [9] = target: Neu5Ac(a2-3)Gal(b1-4)GlcNAc(b1-3)Gal(b1-4)GlcNAc(b1-3)Gal(b1-4)GlcNAc(b1-2)Man(a1-3)[Neu5Ac(a2-3)Gal(b1-4)GlcNAc(b1-3)Gal(b1-4)GlcNAc(b1-3)Gal(b1-4)GlcNAc(b1-2)Man(a1-6)]GalNAc
# How it was run: as §1
# [10] = target: Neu5Ac(a2-3)Gal(b1-4)GlcNAc(b1-3)Gal(b1-4)GlcNAc(b1-3)GalNAc
# How it was run: as §1
# [11] = target: Neu5Ac(a2-3)Gal(b1-4)GlcNAc(b1-3)Gal(b1-4)GlcNAc(b1-3)[Neu5Ac(a2-3)Gal(b1-4)GlcNAc(b1-3)Gal(b1-4)GlcNAc(b1-6)]GalNAc
# How it was run: as §1
# [12] = target: Neu5Ac(a2-3)Gal(b1-4)GlcNAc(b1-3)Gal(b1-4)GlcNAc(b1-6)[Gal(b1-3)]GalNAc
# How it was run: as §1
# [13] = target: Neu5Ac(a2-3)Gal(b1-4)GlcNAc(b1-3)Gal(b1-4)[Fuc(a1-3)]GlcNAc
# How it was run: as §1
# [14] = target: Neu5Ac(a2-3)Gal(b1-4)GlcNAc(b1-3)GalNAc
# How it was run: as §1
# [15] = target: Neu5Ac(a2-3)Gal(b1-4)GlcNAc(b1-3)[Neu5Ac(a2-3)Gal(b1-4)GlcNAc(b1-6)]GalNAc
# How it was run: as §1
# [16] = target: Neu5Ac(a2-3)Gal(b1-4)GlcNAc(b1-6)GalNAc
# How it was run: as §1
# [17] = target: Neu5Ac(a2-3)Gal(b1-4)GlcNAc(b1-6)[Gal(b1-3)]GalNAc
# How it was run: as §1
# [18] = target: Neu5Ac(a2-3)Gal(b1-4)GlcNAc(b1-6)[Neu5Ac(a2-3)Gal(b1-3)]GalNAc
# How it was run: as §1
# [19] = target: Neu5Ac(a2-3)Gal(b1-4)GlcNAc6S
# How it was run: as §1
# [20] = target: Neu5Ac(a2-3)Gal(b1-4)[Fuc(a1-3)]GlcNAc
# How it was run: as §1
# [21] = target: Neu5Ac(a2-3)Gal(b1-4)[Fuc(a1-3)]GlcNAc(b1-2)Man
# How it was run: as §1
# [22] = target: Neu5Ac(a2-3)Gal(b1-4)[Fuc(a1-3)]GlcNAc(b1-3)Gal
# How it was run: as §1
# [23] = target: Neu5Ac(a2-3)Gal(b1-4)[Fuc(a1-3)]GlcNAc(b1-3)Gal(b1-4)GlcNAc
# How it was run: as §1
# [24] = target: Neu5Ac(a2-3)Gal(b1-4)[Fuc(a1-3)]GlcNAc(b1-3)Gal(b1-4)[Fuc(a1-3)]GlcNAc(b1-3)Gal(b1-4)[Fuc(a1-3)]GlcNAc
# How it was run: as §1
# [25] = target: Neu5Ac(a2-3)Gal(b1-4)[Fuc(a1-3)]GlcNAc(b1-3)GalNAc
# How it was run: as §1
# [26] = target: Neu5Ac(a2-3)Gal(b1-4)[Fuc(a1-3)]GlcNAc(b1-6)[Gal(b1-3)]GalNAc
# How it was run: as §1
# [27] = target: Neu5Ac(a2-3)Gal(b1-4)[Fuc(a1-3)]GlcNAc(b1-6)[Neu5Ac(a2-3)Gal(b1-3)]GalNAc
# How it was run: as §1
# [28] = target: Neu5Ac(a2-3)Gal(b1-4)[Fuc(a1-3)]GlcNAc6S
# How it was run: as §1
# [29] = target: Neu5Ac(a2-3)Gal6S(b1-4)GlcNAc
# How it was run: as §1
# [30] = target: Neu5Ac(a2-3)Gal6S(b1-4)[Fuc(a1-3)]GlcNAc
# How it was run: as §1
# Neu5Ac(a2-3)GalNAc = target: Neu5Ac(a2-3)GalNAc
# How it was run: as §1
# [31] = target: Neu5Ac(a2-3)GalNAc(b1-4)GlcNAc
# How it was run: as §1
# [32] = target: Neu5Ac(a2-3)[GalNAc(b1-4)]Gal(b1-4)Glc
# How it was run: as §1
# [33] = target: Neu5Ac(a2-3)[GalNAc(b1-4)]Gal(b1-4)GlcNAc
# How it was run: as §1
# [34] = target: Neu5Ac(a2-3)[GalNAc(b1-4)]Gal(b1-4)GlcNAc(b1-3)GalNAc
# How it was run: as §1
# [35] = target: Neu5Ac(a2-3)[Neu5Ac(a2-6)]GalNAc
# How it was run: as §1
# Neu5Ac(a2-6)Gal = target: Neu5Ac(a2-6)Gal
# How it was run: as §1
binder,measurement,setting,value
B1,glycan array binding signal (z-score),[1],-0.259
same,glycan array binding signal (z-score),[2],-0.473
same,glycan array binding signal (z-score),[3],0.342
same,glycan array binding signal (z-score),[4],-0.109
same,glycan array binding signal (z-score),[5],-0.736
same,glycan array binding signal (z-score),[6],-0.406
same,glycan array binding signal (z-score),[7],0.139
same,glycan array binding signal (z-score),[8],-0.091
same,glycan array binding signal (z-score),[9],1.3
same,glycan array binding signal (z-score),[10],-0.425
same,glycan array binding signal (z-score),[11],-0.56
same,glycan array binding signal (z-score),[12],0.966
same,glycan array binding signal (z-score),[13],0.1
same,glycan array binding signal (z-score),[14],-0.423
same,glycan array binding signal (z-score),[15],0.302
same,glycan array binding signal (z-score),[16],-0.273
same,glycan array binding signal (z-score),[17],0.961
same,glycan array binding signal (z-score),[18],0.983
same,glycan array binding signal (z-score),[19],-0.26
same,glycan array binding signal (z-score),[20],-0.418
same,glycan array binding signal (z-score),[21],0.688
same,glycan array binding signal (z-score),[22],-0.519
same,glycan array binding signal (z-score),[23],0.553
same,glycan array binding signal (z-score),[24],0.645
same,glycan array binding signal (z-score),[25],0.654
same,glycan array binding signal (z-score),[26],0.675
same,glycan array binding signal (z-score),[27],-0.164
same,glycan array binding signal (z-score),[28],0.316
same,glycan array binding signal (z-score),[29],0.623
same,glycan array binding signal (z-score),[30],0.309
same,glycan array binding signal (z-score),Neu5Ac(a2-3)GalNAc,0.655
same,glycan array binding signal (z-score),[31],0.482
same,glycan array binding signal (z-score),[32],-0.883
same,glycan array binding signal (z-score),[33],-0.052
same,glycan array binding signal (z-score),[34],0.891
same,glycan array binding signal (z-score),[35],-0.484
same,glycan array binding signal (z-score),Neu5Ac(a2-6)Gal,0.007

# Reprinted at random: two records from the list
binder,measurement,setting,value
B1,glycan array binding signal (z-score),[28],0.316
same,glycan array binding signal (z-score),[22],-0.519
